Source: paper PMC10002482, “BMPER Improves Vascular Remodeling and the Contractile Vascular SMC Phenotype” (International Journal of Molecular Sciences, 2023)
Results are given in words; binding and its absence hold for the method and conditions named. For some assays here: Binding seen in cells or lysates may run through a third protein. Some entries that bind do so weakly or less than the wild type. For some assays here: Where a sequence is shown, tags or fusion partners need not be part of it.

The chains behind the UniProt entries cited, without tags or fusion partners. Where a name states a change or a piece, a line headed by the entry shows the natural chain unless it says otherwise. Residues count along the entry.
UniProt Q8N8U9: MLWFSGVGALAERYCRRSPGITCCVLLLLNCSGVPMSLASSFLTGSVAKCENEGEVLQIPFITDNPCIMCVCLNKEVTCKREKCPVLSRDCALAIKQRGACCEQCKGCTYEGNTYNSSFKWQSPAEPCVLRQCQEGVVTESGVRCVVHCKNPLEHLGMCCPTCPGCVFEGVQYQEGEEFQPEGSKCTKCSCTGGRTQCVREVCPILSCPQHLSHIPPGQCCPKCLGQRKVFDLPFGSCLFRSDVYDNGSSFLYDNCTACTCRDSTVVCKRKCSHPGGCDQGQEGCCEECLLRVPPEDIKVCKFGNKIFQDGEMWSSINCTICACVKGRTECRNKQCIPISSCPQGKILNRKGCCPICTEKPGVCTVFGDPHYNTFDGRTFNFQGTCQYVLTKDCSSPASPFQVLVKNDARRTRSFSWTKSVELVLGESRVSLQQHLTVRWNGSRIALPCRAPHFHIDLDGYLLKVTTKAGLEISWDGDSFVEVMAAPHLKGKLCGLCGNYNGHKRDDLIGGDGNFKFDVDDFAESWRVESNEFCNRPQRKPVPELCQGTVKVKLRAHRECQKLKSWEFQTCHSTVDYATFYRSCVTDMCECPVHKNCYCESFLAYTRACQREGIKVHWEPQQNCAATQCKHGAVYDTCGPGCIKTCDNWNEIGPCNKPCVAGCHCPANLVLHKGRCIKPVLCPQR
UniProt Q8CJ69, residues 40-685: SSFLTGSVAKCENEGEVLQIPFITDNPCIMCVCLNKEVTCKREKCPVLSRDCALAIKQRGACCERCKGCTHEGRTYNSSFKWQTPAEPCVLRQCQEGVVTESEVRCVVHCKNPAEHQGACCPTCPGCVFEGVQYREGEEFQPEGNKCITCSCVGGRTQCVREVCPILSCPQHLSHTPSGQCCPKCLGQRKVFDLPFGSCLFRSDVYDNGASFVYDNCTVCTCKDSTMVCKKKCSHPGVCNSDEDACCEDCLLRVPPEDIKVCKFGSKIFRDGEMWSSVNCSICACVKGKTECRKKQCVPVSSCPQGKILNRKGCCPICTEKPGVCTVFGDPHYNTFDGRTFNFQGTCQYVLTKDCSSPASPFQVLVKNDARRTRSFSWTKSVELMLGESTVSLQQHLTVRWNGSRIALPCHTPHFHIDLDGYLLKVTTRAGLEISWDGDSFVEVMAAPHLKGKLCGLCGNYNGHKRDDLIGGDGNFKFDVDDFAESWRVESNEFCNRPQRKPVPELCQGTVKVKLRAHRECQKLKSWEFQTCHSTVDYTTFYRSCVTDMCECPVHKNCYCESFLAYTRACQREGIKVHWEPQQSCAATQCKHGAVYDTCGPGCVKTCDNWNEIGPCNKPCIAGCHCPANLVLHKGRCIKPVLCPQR

Experiments:
[1] = biological target: T1, IGFBP4, endogenous in human vSMCs (human (endogenous in primary vSMCs)) (UniProt P22692); test: proximity ligation; Duolink in situ PLA on acetone-fixed human vSMCs with BMPER and IGFBP4 antibodies; cells in 0.4% FBS/EBM or treated with IGF1 (10 ng/mL) for 20 min; control IgGs
T1 sequence: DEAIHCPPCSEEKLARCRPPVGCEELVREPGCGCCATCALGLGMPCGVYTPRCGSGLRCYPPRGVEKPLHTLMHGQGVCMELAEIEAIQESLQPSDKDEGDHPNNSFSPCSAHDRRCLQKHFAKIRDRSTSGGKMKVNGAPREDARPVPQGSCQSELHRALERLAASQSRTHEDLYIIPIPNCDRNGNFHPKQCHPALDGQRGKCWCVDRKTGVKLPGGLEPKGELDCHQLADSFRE

[2] = biological target: T2, IGFBP4, yeast two-hybrid fusion (UniProt P22692); test: two-hybrid; yeast two-hybrid screening "performed in the past"; no details given
T2 sequence: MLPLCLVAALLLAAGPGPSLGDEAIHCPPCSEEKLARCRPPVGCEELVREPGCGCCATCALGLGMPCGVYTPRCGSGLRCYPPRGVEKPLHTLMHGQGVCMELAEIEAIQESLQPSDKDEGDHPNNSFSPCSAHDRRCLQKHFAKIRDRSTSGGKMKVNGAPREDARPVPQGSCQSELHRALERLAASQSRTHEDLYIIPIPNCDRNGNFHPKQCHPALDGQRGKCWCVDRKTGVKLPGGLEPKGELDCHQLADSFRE

[3] = biological target: T3, Igfbp4, endogenous in mouse carotid artery (mouse (endogenous in carotid artery)) (UniProt P47879); test: proximity ligation; Duolink in situ PLA on acetone-fixed mouse carotid tissue sections (RCCA injured and LCCA control, 14 days after carotid ligation)
T3 sequence: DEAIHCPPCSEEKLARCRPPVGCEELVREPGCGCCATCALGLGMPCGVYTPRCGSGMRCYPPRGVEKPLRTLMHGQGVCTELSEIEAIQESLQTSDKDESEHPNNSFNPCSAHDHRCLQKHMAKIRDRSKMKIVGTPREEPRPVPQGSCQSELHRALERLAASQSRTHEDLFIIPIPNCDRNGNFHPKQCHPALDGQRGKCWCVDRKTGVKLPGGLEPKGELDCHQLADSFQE

[4] = biological target: T4, BMP-4 (bone morphogenetic protein 4) (UniProt P12644); test: SPR; competition: BMPER at constant 0.75 nM preincubated for 30 min with 0-6 nM IGFBP-4, injected over immobilised BMP-4 (430 RU, CM5) in HBS-EP; both purified
T4 sequence: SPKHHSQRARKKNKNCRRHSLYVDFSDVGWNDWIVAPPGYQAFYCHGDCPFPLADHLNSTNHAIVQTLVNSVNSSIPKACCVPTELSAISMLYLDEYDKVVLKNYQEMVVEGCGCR

[5] = biological target: T4, BMP-4 (bone morphogenetic protein 4); test: SPR; BIAcore 2000; BMP-4 immobilised at 430 RU on CM5 by amine coupling; 0-320 nM BMPER or IGFBP-4 injected in HBS-EP; 1:1 model with mass transfer; apparent KD = kd/ka; both purified

Q: For “BMPER, endogenous in human vSMCs (from UniProt Q8N8U9 40-685)”, which binding [1] is on record?
A: The binding was “binds”.

Q: For “BMPER, yeast two-hybrid fusion (from UniProt Q8N8U9 1-685)”, which binding [2] is on record?
A: Its binding is “binds”.

Q: With “Bmper, endogenous in mouse carotid artery (from UniProt Q8CJ69 40-685)” as the molecule, how does the binding [3] read?
A: The binding was “binds”.

Q: With “recombinant BMPER (BMP endothelial cell precursor-derived regulator) (from UniProt Q8N8U9 40-685)” as the molecule, how does the binding [4] read?
A: Its binding is “binds”.

B1: recombinant IGFBP-4 (insulin-like growth factor-binding protein 4) (natural protein, UniProt P22692 22-258, looked up)
chain: DEAIHCPPCSEEKLARCRPPVGCEELVREPGCGCCATCALGLGMPCGVYTPRCGSGLRCYPPRGVEKPLHTLMHGQGVCMELAEIEAIQESLQPSDKDEGDHPNNSFSPCSAHDRRCLQKHFAKIRDRSTSGGKMKVNGAPREDARPVPQGSCQSELHRALERLAASQSRTHEDLYIIPIPNCDRNGNFHPKQCHPALDGQRGKCWCVDRKTGVKLPGGLEPKGELDCHQLADSFRE
notes: IGFBP4, recombinant protein immobilised or injected in SPR; whether this holds for the SPR proteins is surmised; source: recombinant
Q: With B1 as the molecule, how does the binding [5] read?
A: The binding was “no binding (tested: 0–320 nM)”.
